Results are given in words; binding and its absence hold for the method and conditions named. In cells and extracts the contact can be indirect. Some results given as binding are weak or reduced against the parent protein; the word gives no strength.
Molecular target: HA-Msps (minispindles, Msps) (Drosophila) (UniProt Q9VEZ3)
Assay: co-IP

Protein sequences, listed by entry. Tags and fused reporters are not part of them.
UniProt Q9VEZ3: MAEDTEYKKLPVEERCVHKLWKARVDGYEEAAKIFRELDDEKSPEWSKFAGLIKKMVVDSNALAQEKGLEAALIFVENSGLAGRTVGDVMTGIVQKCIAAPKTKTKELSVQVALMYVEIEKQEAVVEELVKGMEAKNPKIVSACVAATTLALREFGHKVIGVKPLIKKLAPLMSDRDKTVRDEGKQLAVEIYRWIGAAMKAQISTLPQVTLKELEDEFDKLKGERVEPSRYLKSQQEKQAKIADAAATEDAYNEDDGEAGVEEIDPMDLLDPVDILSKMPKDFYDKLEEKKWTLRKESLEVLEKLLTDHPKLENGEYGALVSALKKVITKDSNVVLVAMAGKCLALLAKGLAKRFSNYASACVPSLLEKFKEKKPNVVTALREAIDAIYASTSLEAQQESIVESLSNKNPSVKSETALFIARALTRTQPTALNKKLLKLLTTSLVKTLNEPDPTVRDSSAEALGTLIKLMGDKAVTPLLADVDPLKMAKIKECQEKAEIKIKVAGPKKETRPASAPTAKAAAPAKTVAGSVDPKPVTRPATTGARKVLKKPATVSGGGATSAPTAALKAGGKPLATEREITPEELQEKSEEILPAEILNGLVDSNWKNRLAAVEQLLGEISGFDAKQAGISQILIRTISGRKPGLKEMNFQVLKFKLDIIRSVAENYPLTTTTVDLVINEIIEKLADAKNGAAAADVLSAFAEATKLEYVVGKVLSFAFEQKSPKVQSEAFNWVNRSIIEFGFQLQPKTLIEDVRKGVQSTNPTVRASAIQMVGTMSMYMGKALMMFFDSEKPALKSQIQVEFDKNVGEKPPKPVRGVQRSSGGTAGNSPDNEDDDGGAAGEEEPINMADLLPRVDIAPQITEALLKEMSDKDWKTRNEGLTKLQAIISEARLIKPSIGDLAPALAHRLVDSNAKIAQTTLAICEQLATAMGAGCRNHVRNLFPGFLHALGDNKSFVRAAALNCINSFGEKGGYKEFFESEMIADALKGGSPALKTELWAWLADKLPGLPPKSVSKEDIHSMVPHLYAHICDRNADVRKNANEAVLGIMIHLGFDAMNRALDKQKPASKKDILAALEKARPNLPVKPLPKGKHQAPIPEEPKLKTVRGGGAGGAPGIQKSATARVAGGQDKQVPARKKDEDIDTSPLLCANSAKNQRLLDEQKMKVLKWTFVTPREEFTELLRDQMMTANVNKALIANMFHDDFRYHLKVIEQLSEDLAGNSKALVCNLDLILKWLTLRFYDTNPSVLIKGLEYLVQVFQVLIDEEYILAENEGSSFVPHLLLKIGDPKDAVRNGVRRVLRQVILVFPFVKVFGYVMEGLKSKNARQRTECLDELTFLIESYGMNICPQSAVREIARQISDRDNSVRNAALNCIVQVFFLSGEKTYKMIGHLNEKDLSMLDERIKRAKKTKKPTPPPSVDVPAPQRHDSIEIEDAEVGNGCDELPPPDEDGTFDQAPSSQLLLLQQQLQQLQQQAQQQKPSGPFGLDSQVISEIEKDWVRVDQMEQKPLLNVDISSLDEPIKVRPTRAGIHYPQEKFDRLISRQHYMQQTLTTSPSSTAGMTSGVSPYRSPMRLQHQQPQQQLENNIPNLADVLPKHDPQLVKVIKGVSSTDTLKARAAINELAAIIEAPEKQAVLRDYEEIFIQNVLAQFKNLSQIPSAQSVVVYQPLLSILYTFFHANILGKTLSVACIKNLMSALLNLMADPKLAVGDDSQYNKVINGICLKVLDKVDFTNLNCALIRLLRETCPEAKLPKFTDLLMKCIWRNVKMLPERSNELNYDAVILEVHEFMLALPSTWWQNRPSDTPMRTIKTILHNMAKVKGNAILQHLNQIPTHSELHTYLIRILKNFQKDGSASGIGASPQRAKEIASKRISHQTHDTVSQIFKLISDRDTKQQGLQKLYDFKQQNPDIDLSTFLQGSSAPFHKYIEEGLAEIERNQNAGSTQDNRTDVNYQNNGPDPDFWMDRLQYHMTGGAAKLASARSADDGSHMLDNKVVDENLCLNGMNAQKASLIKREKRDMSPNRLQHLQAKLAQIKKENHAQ
UniProt A1ZAU8: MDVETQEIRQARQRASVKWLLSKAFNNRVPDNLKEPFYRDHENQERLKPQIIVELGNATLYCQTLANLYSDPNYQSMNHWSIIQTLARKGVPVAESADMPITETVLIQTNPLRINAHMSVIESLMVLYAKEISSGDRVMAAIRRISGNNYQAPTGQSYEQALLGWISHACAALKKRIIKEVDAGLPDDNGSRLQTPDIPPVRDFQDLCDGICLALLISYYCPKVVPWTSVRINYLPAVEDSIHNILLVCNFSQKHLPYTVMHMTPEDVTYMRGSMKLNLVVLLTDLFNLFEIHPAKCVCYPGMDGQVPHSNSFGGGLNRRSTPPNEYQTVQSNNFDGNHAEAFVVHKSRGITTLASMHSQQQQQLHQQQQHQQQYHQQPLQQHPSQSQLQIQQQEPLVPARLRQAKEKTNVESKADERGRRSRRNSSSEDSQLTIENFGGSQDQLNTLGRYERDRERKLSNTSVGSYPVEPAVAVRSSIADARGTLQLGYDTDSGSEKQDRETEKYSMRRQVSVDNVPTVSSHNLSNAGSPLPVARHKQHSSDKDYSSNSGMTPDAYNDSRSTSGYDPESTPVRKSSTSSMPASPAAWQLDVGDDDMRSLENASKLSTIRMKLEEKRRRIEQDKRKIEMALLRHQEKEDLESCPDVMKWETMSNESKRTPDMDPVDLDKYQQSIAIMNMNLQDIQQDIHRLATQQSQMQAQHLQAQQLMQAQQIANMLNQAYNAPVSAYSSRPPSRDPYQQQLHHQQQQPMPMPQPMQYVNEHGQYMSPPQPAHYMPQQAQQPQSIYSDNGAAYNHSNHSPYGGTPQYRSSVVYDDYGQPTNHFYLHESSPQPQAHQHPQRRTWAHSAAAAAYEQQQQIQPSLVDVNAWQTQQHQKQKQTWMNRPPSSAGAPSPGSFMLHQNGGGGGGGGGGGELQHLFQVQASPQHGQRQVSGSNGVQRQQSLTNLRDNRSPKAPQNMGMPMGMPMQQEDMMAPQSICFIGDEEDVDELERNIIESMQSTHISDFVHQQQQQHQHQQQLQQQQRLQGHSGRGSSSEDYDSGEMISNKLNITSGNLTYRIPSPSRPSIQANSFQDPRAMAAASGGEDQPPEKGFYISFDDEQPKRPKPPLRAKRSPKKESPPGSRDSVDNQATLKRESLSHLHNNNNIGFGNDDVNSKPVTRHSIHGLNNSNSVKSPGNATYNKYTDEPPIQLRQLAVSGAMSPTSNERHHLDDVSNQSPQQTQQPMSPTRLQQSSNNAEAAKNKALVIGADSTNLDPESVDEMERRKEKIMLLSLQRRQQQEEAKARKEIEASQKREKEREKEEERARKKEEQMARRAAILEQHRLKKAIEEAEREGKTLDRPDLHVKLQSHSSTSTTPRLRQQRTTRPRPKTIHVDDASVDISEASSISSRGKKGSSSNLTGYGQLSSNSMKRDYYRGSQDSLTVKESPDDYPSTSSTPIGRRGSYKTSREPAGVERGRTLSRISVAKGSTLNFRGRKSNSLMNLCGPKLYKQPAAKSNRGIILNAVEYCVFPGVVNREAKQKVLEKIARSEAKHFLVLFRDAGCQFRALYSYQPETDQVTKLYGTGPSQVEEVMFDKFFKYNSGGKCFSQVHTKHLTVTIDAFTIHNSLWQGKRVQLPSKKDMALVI

## Patronin (endogenous) (from UniProt A1ZAU8 1-1630)
  binding: binds
